Test results reported in PMC9108500.
Results are given in words; binding and its absence hold for the method and conditions named. In cells and extracts the contact can be indirect. Some entries that bind do so weakly or less than the wild type. Where a sequence is shown, tags or fusion partners need not be part of it.

Chains of the proteins cited; added tags and fusions are not shown.
UniProt P46937: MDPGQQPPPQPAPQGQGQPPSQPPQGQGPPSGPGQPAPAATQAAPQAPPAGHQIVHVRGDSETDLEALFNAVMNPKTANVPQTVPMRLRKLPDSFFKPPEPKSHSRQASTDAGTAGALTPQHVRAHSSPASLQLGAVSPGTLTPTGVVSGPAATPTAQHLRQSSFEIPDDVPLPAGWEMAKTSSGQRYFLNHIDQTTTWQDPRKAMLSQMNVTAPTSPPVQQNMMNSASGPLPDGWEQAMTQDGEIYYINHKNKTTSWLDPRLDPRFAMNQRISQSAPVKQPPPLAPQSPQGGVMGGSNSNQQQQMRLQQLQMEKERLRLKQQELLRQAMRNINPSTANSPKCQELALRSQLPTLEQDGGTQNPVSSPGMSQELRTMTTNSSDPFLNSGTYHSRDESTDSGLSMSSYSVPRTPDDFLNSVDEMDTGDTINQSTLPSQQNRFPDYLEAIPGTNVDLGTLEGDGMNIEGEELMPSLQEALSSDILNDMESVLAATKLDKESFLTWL

Biological target: Myc tagged yes-associated protein1 (Myc-YAP1) (UniProt P46937)
Experiment: co-IP; 293T cells co-transfected with Myc-YAP1 and V5-LSR (WT or Y623A); after 24 hours lysates were incubated with the antibody against the Myc tag for one hour, then protein G agarose for three hours, then western blot; the paper calls it a pull-down assay

binding: binds
B1: V5 tagged lipolysis-stimulated lipoprotein receptor, wild type (V5-LSR-WT) (protein, UniProt Q86X29 1-649)
chain: MQQDGLGVGTRNGSGKGRSVHPSWPWCAPRPLRYFGRDARARRAQTAAMALLAGGLSRGLGSHPAAAGRDAVVFVWLLLSTWCTAPARAIQVTVSNPYHVVILFQPVTLPCTYQMTSTPTQPIVIWKYKSFCRDRIADAFSPASVDNQLNAQLAAGNPGYNPYVECQDSVRTVRVVATKQGNAVTLGDYYQGRRITITGNADLTFDQTAWGDSGVYYCSVVSAQDLQGNNEAYAELIVLGRTSGVAELLPGFQAGPIEDWLFVVVVCLAAFLIFLLLGICWCQCCPHTCCCYVRCPCCPDKCCCPEALYAAGKAATSGVPSIYAPSTYAHLSPAKTPPPPAMIPMGPAYNGYPGGYPGDVDRSSSAGGQGSYVPLLRDTDSSVASEVRSGYRIQASQQDDSMRVLYYMEKELANFDPSRPGPPSGRVERAMSEVTSLHEDDWRSRPSRGPALTPIRDEEWGGHSPRSPRGWDQEPAREQAGGGWRARRPRARSVDALDDLTPPSTAESGSRSPTSNGGRSRAYMPPRSRSRDDLYDQDDSRDFPRSRDPHYDDFRSRERPPADPRSHHHRTRDPRDNGSRSGDLPYDGRLLEEAVRKKGSEERRRPHKEEEEEAYYPPAPPPYSETDSQASRERRLKKNLALSRESLVV
